This is an account of results in PMC10551642, “Functional plasticity in chromosome–microtubule coupling on the evolutionary time scale” (Life Science Alliance, 2023).

No constants are given. Whether binding was seen depends on the method and setting. Some entries that bind do so weakly or less than the wild type. For some of these results: Where a sequence is shown, tags or fusion partners need not be part of it.

Test [1] addresses S. cerevisiae Dam1 complex containing Dad2-R126A (DASH^R126A) (S. cerevisiae) (UniProt Q12248). Put plainly: negative stain electron microscopy; Dam1 complex-MT reaction mix adsorbed on glow-discharged grids, washed with 25 mM HEPES pH 7.4, 500 mM NaCl, 1 mM EDTA, stained with 0.7% uranyl formate; rings of the complex around MTs; both purified.
The target in test [2] is T1, S. cerevisiae Dad1 with C-terminal His6 tag (S. cerevisiae) (UniProt Q12248).
T1 sequence: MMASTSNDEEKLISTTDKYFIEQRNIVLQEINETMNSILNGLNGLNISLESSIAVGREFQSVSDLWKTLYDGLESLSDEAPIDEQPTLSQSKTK
In words: co-purification (Ni-NTA, ion exchange, gel filtration) with SDS-PAGE of the fractions; 10 subunits with WT Dad2 co-expressed in E. coli; captured by Dad1-His6 on Ni-NTA agarose; HiTRAP Q HP; Superose 6 10/300 GL in 25 mM HEPES pH 7.4, 500 mM NaCl, 1 mM EDTA; 4-12% gradient gel.

In test [3] the target is T1, S. cerevisiae Dad1 with C-terminal His6 tag (S. cerevisiae). Put plainly: co-purification (Ni-NTA, ion exchange, gel filtration) with SDS-PAGE of the fractions; as a1, but Dad2-R126A co-expressed instead of WT Dad2; fractions a and b of the gel filtration analysed. (In gel filtration, larger molecules generally elute earlier.)
Test [4] has the same target. Put plainly: co-purification (Ni-NTA, ion exchange, gel filtration) with SDS-PAGE of the fractions; as a1, but Dad2-ΔDSS co-expressed instead of WT Dad2; fractions c and d of the gel filtration analysed.

With “S. cerevisiae Dam1 complex containing Dad2-R126A (DASH^R126A) (from UniProt Q12248 1-94; P36162 1-133; P69850 1-94; P69851 1-72; P53267 1-343; P53168 1-247; P35734 1-292; P69852 1-69; P36131 1-295)”, the binding entry in test [1] is recorded as “no binding”.

B1: S. cerevisiae Dam1 (protein, UniProt P53267 1-343)
chain: MSEDKAKLGTTRSATEYRLSIGSAPTSRRSSMGESSSLMKFADQEGLTSSVGEYNENTIQQLLLPKIRELSDSIITLDSNFTRLNFIHESLADLNESLGSLLYGIMSNSWCVEFSQAPHDIQDDLIAIKQLKSLEDEKNNLVMELSNMERGIKRKKDEQGENDLAKASQNKQFNQPLFPSSQVRKYRSYDNRDKRKPSKIGNNLQVENEEDYEDDTSSEASFVLNPTNIGMSKSSQGHVTKTTRLNNNTNSKLRRKSILHTIRNSIASGADLPIENDNVVNLGDLHPNNRISLGSGAARVVNGPVTKNRNSMFSGRAERKPTESRHSVAKKTEKKINTRPPFR
Consider B1, for which the binding result in test [2], in test [3] and in test [4] was “binds” each time.

B2: S. cerevisiae Dad4 (protein, UniProt P69851 1-72)
chain: MENPHEQVQANILSRIIGNVKRLNESVAILNQELVTINNRNKNLEIMGAICDNYHSSVQFNLEATNNKKPPL
In the case of B2, the binding entry in test [2] is on record as “binds”.

B3: S. cerevisiae Dad3 (protein, UniProt P69850 1-94)
chain: MEHNLSPLQQEVLDKYKQLSLDLKALDETIKELNYSQHRQQHSQQETVSPDEILQEMRDIEVKIGLVGTLLKGSVYSLILQRKQEQESLGSNSK
Consider B3, for which the binding result in test [2] is on record as “binds”.

B4: S. cerevisiae Hsk3 (protein, UniProt P69852 1-69)
chain: MNANKQRQYNQLAHELRELQTNLQETTKQLDIMSKQCNENLVGQLGKVHGSWLIGSYIYYMEQMLGKTQ
Regarding B4, in test [2], the binding result is listed as “binds”.

B5: S. cerevisiae Duo1 (protein, UniProt P53168 1-247)
chain: MSEQSQLDDSTIDKLIPQIFNEMRSNLNNTTNKFPKSTGGGASDNISANSNSIRSFNSITTQSLLKESESLDKITAMIKNVTAALKNNLPVYVNQVHEVCKSTNSILDSWINIHSQAGYIHKLMSDQTYLKLINDRLHNENVNTNDEDGSTLHNVIALKKKEILDLRQKLENRKGEKDAAPAKPPNQGLNPRYGVQSGRRPVPSAGISNNGRVRKTHVPASKRPSGIPRVTNRWTKPTASSSRKMFR
For the molecule B5, the binding result in test [2], in test [3] and in test [4] was “binds” in each case.

B6: S. cerevisiae Dad2 (Dad2-FL) (protein, UniProt P36162 1-133)
chain: MDSIDEQIAIKRKELQSLQKITSLTDGLKIQLTELNEQIKEMGMNADSVAQLMNNWDSIINNISQASLGLLQYAEGDYEIGPWKDSKKKESEQSNETGLEAQENDKNDEDNDEDEDLVPLPETMVRIRVDGNE
In the case of B6, the binding result in test [2] was “binds”.

B7: S. cerevisiae Dad2-R126A (protein, UniProt P36162 1-133)
chain: MDSIDEQIAIKRKELQSLQKITSLTDGLKIQLTELNEQIKEMGMNADSVAQLMNNWDSIINNISQASLGLLQYAEGDYEIGPWKDSKKKESEQSNETGLEAQENDKNDEDNDEDEDLVPLPETMVAIRVDGNE
For B7, the binding result in test [3] is “binds”.

B8: S. cerevisiae Spc34 (protein, UniProt P36131 1-295)
chain: MGESLDRCIDDINRAVDSMSTLYFKPPGIFHNAILQGASNKASIRKDITRLIKDCNHDEAYLLFKVNPEKQSVSRRDGKEGVFDYVIKRDTDMKRNRRLGRPGEKPIIHVPKEVYLNKDRLDLNNKRRRTATTSGGGLNGFIFDTDLIGSSVISNSSSGTFKALSAVFKDDPQIQRLLYALENGSVLMEEESNNQRRKTIFVEDFPTDLILKVMAEVTDLWPLTEFKQDYDQLYHNYEQLSSKLRFIKKEVLLQDDRLKTMSQYHPSSSHDVAKIIRKEKDEIRRLEMEIANLQE
On to B8, for which, in test [2], the binding entry was “binds”.

B9: S. cerevisiae Ask1 (protein, UniProt P35734 1-292)
chain: MDSASKEETLEKLDQEITVNLQKIDSNLSFCFHKITQDIIPHVATYSEICERIMDSTEWLGTMFQETGLVNLQANAAAPVGNAPVKSLVSNNVGIFPTSAEEASRQSQTDNGPNEADSAVHVNRDVHSMFNNDSIDDFHTANITSTGQILKLPDSSDEDTGSEAVPSREQTDLTGEGHGGADDEQDESTIQRQSRKRKISLLLQQQYGSSSSMVPSPIVPNKMRKQLAHEEHINNDGDNDDENSNNIESSPLKQGHHHPKGQADDNNEGPDEEESTKEVPKPGTIIHFSTNR
In the case of B9, the binding entry in test [2] is “binds”.

B10: S. cerevisiae Spc19 (protein, UniProt Q03954 1-165)
chain: MTDALEQSVLALEGTVSVLKDSVESLKCANEPSTNLASTMLQTKRVFRLVPEYDVERSKLDLIEEVEPLVRTLGDKLRKSMGRMQRELDTLQQTYELNDLRLKKNISMDDDDALNSPDMGQEYEGRDADDVVMMASSTNEELEELKKLKEKKKQLENKLEILKQK
Take B10: the binding result in test [2] and in test [4] was “binds” in each case.
